This is an account of results in publication PMC3689657.

These are yes or no findings as the source states them, for the method shown. Tags and fused reporters may be left off the sequences shown.

The assay deals with Pseudomonas aeruginosa UDP-N-acetylglucosamine-enolpyruvate reductase (MurB) (Pseudomonas aeruginosa PAO1) (UniProt Q9HZM7). Nature of the assay: SEC; purified PaMurB on Superdex 200 10/300, 25 mM Tris-Cl pH 8.0, 150 mM NaCl; single peak at 16.5 ml, mass from a calibration curve; both purified. A general note: In gel filtration, larger molecules generally elute earlier.

B1: Pseudomonas aeruginosa UDP-N-acetylglucosamine-enolpyruvate reductase (MurB) (enzyme, UniProt Q9HZM7 1-339)
chain: SMSLELQEHCSLKPYNTFGIDVRARLLAHARDEADVREALALARERGLPLLVIGGGSNLLLTRDVEALVLRMASQGRRIVSDAADSVLVEAEAGEAWDPFVQWSLERGLAGLENLSLIPGTVGAAPMQNIGAYGVELKDVFDSLTALDRQDGTLREFDRQACRFGYRDSLFKQEPDRWLILRVRLRLTRRERLHLDYGPVRQRLEEEGIASPTARDVSRVICAIRREKLPDPAVLGNAGSFFKNPLVDATQAERLRQAFPDLVGYPQADGRLKLAAGWLIDKGGWKGFRDGPVGVHAQQALVLVNHGGATGAQVRALAERIQEDVRRRFGVELEPEPNLY
As for B1, the binding result is on record as “no binding”.
